Source: paper PMC9580158

By UniProt entry, the sequences of proteins in these tests, tags left out. Residues count along the entry.
UniProt P35869, residues 11-848: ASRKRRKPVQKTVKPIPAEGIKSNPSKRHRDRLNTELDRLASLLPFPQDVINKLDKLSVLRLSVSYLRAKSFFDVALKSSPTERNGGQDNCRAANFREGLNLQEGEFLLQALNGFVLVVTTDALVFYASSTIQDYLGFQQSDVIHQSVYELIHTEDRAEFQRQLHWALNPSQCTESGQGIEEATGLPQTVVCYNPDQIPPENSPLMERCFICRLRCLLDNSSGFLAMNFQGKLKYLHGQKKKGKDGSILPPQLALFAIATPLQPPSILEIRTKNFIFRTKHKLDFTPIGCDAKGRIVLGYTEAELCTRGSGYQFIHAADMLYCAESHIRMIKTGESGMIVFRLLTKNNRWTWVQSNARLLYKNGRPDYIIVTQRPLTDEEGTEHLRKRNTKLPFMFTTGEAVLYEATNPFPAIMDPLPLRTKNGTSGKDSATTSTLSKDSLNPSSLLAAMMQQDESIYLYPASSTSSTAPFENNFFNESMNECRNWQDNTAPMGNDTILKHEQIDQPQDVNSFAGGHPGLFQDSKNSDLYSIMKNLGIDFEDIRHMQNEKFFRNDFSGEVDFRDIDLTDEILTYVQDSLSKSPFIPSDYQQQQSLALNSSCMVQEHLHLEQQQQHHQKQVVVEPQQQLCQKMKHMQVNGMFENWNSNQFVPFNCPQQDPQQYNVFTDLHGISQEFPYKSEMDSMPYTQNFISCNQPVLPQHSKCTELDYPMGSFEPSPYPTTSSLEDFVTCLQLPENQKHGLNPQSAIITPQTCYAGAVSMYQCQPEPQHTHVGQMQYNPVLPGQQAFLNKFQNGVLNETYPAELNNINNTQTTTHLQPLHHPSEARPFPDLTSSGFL

Target: T1, Flag-tagged NUPR1 (nuclear protein 1) (UniProt O60356)
T1 sequence: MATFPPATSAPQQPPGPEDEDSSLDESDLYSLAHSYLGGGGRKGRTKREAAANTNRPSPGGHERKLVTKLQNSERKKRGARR
Assay: affinity purification with mass spectrometry; anti-Flag Co-IP from lysates of Flag-tagged NUPR1-overexpressing cells, LC-MS/MS

aryl hydrocarbon receptor (AhR) (from UniProt P35869 11-848)
binding: binds

These are yes or no findings as the source states them, for the method shown. In cells and extracts the contact can be indirect. Here binding means that the protein was enriched with, or labelled near, the bait; the list need not be complete. Where a sequence is shown, tags or fusion partners need not be part of it.
